Inconclusive means that the source gave no clear call. Such entries were picked first, then a sample of the others. Potencies of inconclusive entries are doubtful fits and often do not repeat. Calls of active or inactive are those of the source. Calls come from the whole dose curve; as a rule, active = well fitted inhibition curve with a large enough effect; inconclusive = small, poorly fitted or top-dose-only effect; inactive = no such curve, though single readings can be large or run the other way.
Test: Counterscreen for RECQ1 Inhibitors: ADP Fluorescence Polarization Displacement Assay; note: nearly all actives have a fitted effect of over 45% in size
Conditions: series mostly up to 228 µM; activity change, negative = inhibition: at the top concentration
Summary of the method: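 Compounds were pin-transferred into RECQ1 (300 nM) plus labelled ADP probe (500 nM) at pH 8.0. After incubating 15 min at room temperature, plates were read for fluorescence polarization; ATP-site competitors lower the signal.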
% is set by controls: 0 for no effect and ±100 for the full control effect; potency is the fitted concentration of half-maximal effect.

SMILES	activity change, negative = inhibition	Potency
COc1ccc(CCNc2ncnc3c2[nH]c2cc(OC)c(OC)cc23)cc1OC	inactive: -23.5% [at 91.9 µM]	–
C/C(=N\N=C(c1ccccc1)c1ccccc1)c1cccs1	inactive: -9.34% [at 91.9 µM]	–
Cc1ccc(OCC(=O)N/N=C/C=C/c2ccco2)cc1	–	inconclusive: 79.4 µM [inhibitor, single point]
Cc1csc(N/N=C/c2ccc(O)c([N+](=O)[O-])c2)n1	–	inconclusive: 56.2 µM [inhibitor, partial curve, poor fit]
Cc1ccc(/C=C2/C(=O)c3ccc(C(=O)O)cc3C2=O)o1	–	active: 44.7 µM
COc1cc(N2CCCC2)c(OC)cc1/C=C(/C#N)c1cccc(F)c1	–	inconclusive: 56.2 µM [inhibitor, single point]
O=C(O)c1cc(-c2ccco2)nc2ccc(Br)cc12	–	inconclusive: 39.8 µM [inhibitor, partial curve]
COc1ccc(-c2csc(N3CCN(c4cc(C)nc5ccccc45)CC3)n2)cc1OC	–	inconclusive: 50.1 µM [inhibitor, single point]
O=C(Nc1cccc(S(=O)(=O)NC2=NCCC2)c1)c1cc(-c2ccco2)nc2ccccc12	–	active: 39.8 µM
CC(C)Nc1ccc(Nc2ccnc3cc4ccccc4cc23)cc1	inactive: 37.2% [at 91.9 µM]	–
Cc1noc(C)c1COc1ccc(C(=O)NCc2ccccn2)cc1	–	inconclusive: 7.08 µM [inhibitor, partial curve, poor fit]
Cc1ccc(CNC(=O)C(Cc2ccccc2)NS(=O)(=O)c2ccc3c(c2)CCC(=O)N3)cc1 (stereo not drawn)	inactive: 11.2%	–
Cc1ccc(C)c(-c2nc3ccc(N)cc3[nH]2)c1	–	inconclusive: 282 µM [inhibitor, partial curve, poor fit]
O=C(NC(Cc1ccccc1)C(=O)O)c1ccc(S(=O)(=O)N2CCCCC2)cc1 (stereo not drawn)	–	inconclusive: 11.2 µM [inhibitor, partial curve, poor fit]
Cc1ccc(-c2nn(CCC(=O)O)cc2CCC(=O)O)cc1	–	inconclusive: 89.1 µM [inhibitor, partial curve, poor fit]
Cc1ccc(CNS(=O)(=O)c2ccc3c(c2)CCN3C(=O)CCCC(=O)O)cc1	inactive: -7.66%	–
CCc1ccc(NC(=O)CSc2nc3ccsc3c(=O)n2CCCCCC(=O)O)cc1	inactive: 7.29%	–

SMILES	activity change, negative = inhibition	Potency
Cc1c(Cl)c(C(F)F)nn1CC(=O)NC1C(=O)N2C(C(=O)O)=C(CSc3nnnn3C)CSC12 (stereo not drawn)	–	inconclusive: 12.6 µM [inhibitor, full curve, poor fit]
O=C(CSc1nccc(=O)[nH]1)N1N=C2/C(=C/c3ccco3)CCCC2C1c1ccco1 (stereo not drawn)	–	inconclusive: 56.2 µM [inhibitor, partial curve, poor fit]
Cc1ccccc1NC(=O)CN1C(=O)N/C(=C\c2cccn2-c2cccc(C(=O)O)c2)C1=O	–	inconclusive: 44.7 µM [inhibitor, partial curve, poor fit]
CCN(CC)C(=O)CSc1nc2ccc(NC(=O)CSc3nccn3C)cc2s1	–	inconclusive: 44.7 µM [inhibitor, partial curve, poor fit]
O=C(O)CCCC(=O)N1CCc2cc(S(=O)(=O)NCc3ccc(F)cc3)ccc21	inactive: 6.49%	–
CCOC(=O)N1CCC(NC(=O)c2cccc3c2C(=O)N(c2ccc(OC)cc2)C3)CC1	inactive: 6.49% [at 91.9 µM]	–
CCCCc1nc2ccccc2c(=O)n1NC(=O)c1c(O)c2c(n(CC(C)C)c1=O)CCCC2	inactive: 38%	–
CCn1c(CSc2nnc(-c3ccncc3)n2C)nc2cc(C(=O)O)ccc21	–	active: 7.08 µM
COc1ccc(NCc2nnc(SCC(=O)Nc3nc(-c4ccccc4)cs3)n2-c2ccccc2)cc1	–	inconclusive: 0.398 µM [inhibitor, full curve, poor fit]
O=C(O)c1cccc(Cn2c(Cl)c(/C=N/NC(=O)c3cc4ccccc4cc3O)sc2=O)c1	inactive: 7.46% [at 91.9 µM]	–
O=C1C=CC2=C3c4cc(O)c(O)cc4C[C@]3(O)COC2=C1	–	active: 6.31 µM
O=C(NN1C(=O)C2CC=C(Cl)CC2C1=O)c1ccncc1 (stereo not drawn)	–	inconclusive: 39.8 µM [inhibitor, partial curve]
Oc1ccc([C@@H]2CNCCc3c2cc(O)c(O)c3Cl)cc1	–	active: 7.08 µM
O=C(CSc1c2c(nc3ccccc13)CCCC2)NCc1ccco1	–	inconclusive: 31.6 µM [inhibitor, partial curve]
O=c1nc2s/c(=C\c3ccco3)c(=O)n2nc1Cc1ccc(F)cc1	–	inconclusive: 44.7 µM [inhibitor, partial curve]
CC(N=C1CC(C)(C)CC(=O)/C1=C(/O)CCCN1C(=O)c2ccccc2C1=O)C(=O)O (stereo not drawn)	–	inconclusive: 0.708 µM [inhibitor, full curve, poor fit]

Structural class: the entries above with a thiophene ring, fused or not (two)
SMILES	activity change, negative = inhibition	Potency
C/C(=N\N=C(c1ccccc1)c1ccccc1)c1cccs1	inactive: -9.34% [at 91.9 µM]	–
CCc1ccc(NC(=O)CSc2nc3ccsc3c(=O)n2CCCCCC(=O)O)cc1	inactive: 7.29%	–
